The whole screen tested about 580,000 compounds, of which about 6,100 (1.1%) were called active. Inconclusive results, whose numbers are uncertain, are shown with a selection of clear calls. The call rests on the fitted dose curve; in most records, active means well fitted inhibition curve with a large enough effect; inconclusive means small, poorly fitted or top-dose-only effect, or another doubt; inactive means no such curve, though single readings can be large or run the other way. Potencies beside an inconclusive call are fits to weak or partial responses and may not hold up.
The compounds below were run against Polyunsaturated fatty acid lipoxygenase ALOX12 (Homo sapiens) (UniProt P18054) (assay: Primary qHTS assay for inhibitors of human arachidonate 12S-lipoxygenase (ALOX12): Round 2). Conditions: purified 12hLO, xylenol orange hydroperoxide absorbance; series mostly up to 108 µM.
Outline: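 Purified human 12hLO at 150 nM in 25 mM Hepes, 0.01% Triton X-100, pH 7.0, preincubated 15 min at room temperature with compound. Reaction started with 40 uM arachidonic acid, 30 min at room temperature. Hydroperoxide measured by Fe-xylenol orange, 573/405 nm absorbance ratio.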
Potency means the concentration at half of the fitted maximal effect.

The chains behind the UniProt entries cited, without tags or fusion partners.
UniProt P18054, whole entry, looked up: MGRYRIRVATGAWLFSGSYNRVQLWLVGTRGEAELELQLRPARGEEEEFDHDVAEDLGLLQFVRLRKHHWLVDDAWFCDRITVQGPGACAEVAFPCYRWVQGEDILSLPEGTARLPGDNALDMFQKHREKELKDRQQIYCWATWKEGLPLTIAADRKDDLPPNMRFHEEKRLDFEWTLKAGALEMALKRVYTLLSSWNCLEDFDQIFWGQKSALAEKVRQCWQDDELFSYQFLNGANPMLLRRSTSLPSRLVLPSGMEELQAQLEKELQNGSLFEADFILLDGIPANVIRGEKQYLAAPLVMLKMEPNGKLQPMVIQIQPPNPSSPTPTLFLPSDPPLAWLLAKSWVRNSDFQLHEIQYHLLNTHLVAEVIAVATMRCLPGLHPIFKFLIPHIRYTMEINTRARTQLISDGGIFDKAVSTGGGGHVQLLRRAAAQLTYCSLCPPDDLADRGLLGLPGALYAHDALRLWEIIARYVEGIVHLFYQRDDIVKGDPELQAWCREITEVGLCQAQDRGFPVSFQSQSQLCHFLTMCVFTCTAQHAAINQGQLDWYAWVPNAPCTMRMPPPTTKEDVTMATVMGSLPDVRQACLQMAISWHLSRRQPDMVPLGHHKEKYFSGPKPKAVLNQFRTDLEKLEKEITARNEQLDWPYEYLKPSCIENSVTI

| SMILES | Potency |
| --- | --- |
| O=C(CSc1nc(=O)[nH]c2c1CCC2)NCc1ccccc1Cl | inconclusive: 112 µM [inhibitor, partial curve, poor fit] |
| O=C(N/N=C/c1cccc(F)c1)c1cc(-c2ccco2)nc2ccccc12 | inactive |
| CN(C)CCCN(C(=O)/C=C/c1cccs1)c1nc2ccc(F)cc2s1 | inconclusive: 56.2 µM [inhibitor, partial curve, poor fit] |
| CCc1ccc(CSc2nc(-c3ccccc3F)nc3c2Cc2c(CO)cnc(C)c2O3)cc1 | inconclusive: 79.4 µM [inhibitor, partial curve, poor fit] |
| COc1ccc(CN2C[C@@]3(O)CC[C@@H](O)[C@@H](OC)[C@@H]3[C@@]2(C)[C@H](O)CC=C(C)C)cc1 | inactive |
| CC(C)(CNC(=O)C1C2CCC(C2)C1C(=O)O)CNC(=O)C1C2CCC(C2)C1C(=O)O (stereo not given) | inactive |
| O=c1cc(N2CCOCC2)oc2c(NCC3CCOCC3)nccc12 | inconclusive: 11.2 µM [inhibitor, full curve] |
| Cc1cccc(C)c1Nc1nnc(SCc2nc3ccccc3s2)s1 | inactive |
| Cc1ccc(NC2=Nc3ccccc3N3C2=Nc2c(c(C)nn2-c2ccccc2)C3c2ccc(O)c(O)c2)cc1 (stereo not given) | inactive |
| Cc1ccc(CNC(=O)c2ccc3c(c2)CN(Cc2cccc(F)c2)CCO3)cc1 | inconclusive: 3.55 µM [inhibitor, full curve, poor fit] |
| Cc1ccccc1NC(=O)CSc1nnc(-c2ccco2)n1N | inconclusive: 112 µM [inhibitor, single point] |
| Cc1cccc(NS(=O)(=O)c2ccc3c(c2)CC(C)N3C(=O)C2CCC2)c1C (stereo not given) | inactive |
| O=C(COC(=O)c1cccc(-n2cnnn2)c1)c1ccccc1 | inconclusive: 44.7 µM [inhibitor, partial curve, poor fit] |
| CC1(C)Cc2c(sc(NC(=O)COc3ccc(Cl)cc3Cl)c2C(N)=O)C(C)(C)N1 | inconclusive: 39.8 µM [inhibitor, partial curve, poor fit] |
| Cc1cc(NS(=O)(=O)c2ccc(NC(=S)NC(=O)c3ccc(F)cc3Cl)cc2)no1 | inconclusive: 35.5 µM [inhibitor, partial curve] |
| Cn1nnnc1Sc1ncnc2scc(-c3ccccc3Br)c12 | inactive |
| COc1cccc(-c2nccc(NCc3cnc(C)cn3)n2)c1 | inconclusive: 22.4 µM [inhibitor, partial curve, poor fit] |
| O=C(Nc1ccccc1Cc1ccccc1)c1ccccc1NS(=O)(=O)c1ccc(Cl)s1 | inconclusive: 44.7 µM [inhibitor, partial curve] |
| S=c1[nH]nc(COc2ccccc2)n1/N=C/c1ccncc1 | inactive |
| CN(C)C(=O)c1ccc(NC(=O)CN2CCCC2c2ccc(Cl)cc2)cc1 (stereo not given) | inconclusive: 89.1 µM [inhibitor, single point] |

Quoted at random: two compounds from above

| SMILES | Potency |
| --- | --- |
| CN(C)C(=O)c1ccc(NC(=O)CN2CCCC2c2ccc(Cl)cc2)cc1 (stereo not given) | inconclusive: 89.1 µM [inhibitor, single point] |
| Cn1nnnc1Sc1ncnc2scc(-c3ccccc3Br)c12 | inactive |

The list goes on.

| SMILES | Potency |
| --- | --- |
| O=C(COc1ncnc2ccc(Br)cc12)NCc1ccc2c(c1)OCO2 | inconclusive: 31.6 µM [inhibitor, partial curve, poor fit] |
| Cc1ccc(NCc2n[nH]c(=S)n2Cc2ccccc2)cc1Cl | inconclusive: 50.1 µM [inhibitor, partial curve, poor fit] |
| CCc1ccc(NC(=O)Cn2c(N3CCN(c4ccccc4)CC3)nc(C)cc2=O)cc1 | inconclusive: 89.1 µM [inhibitor, single point] |
| O=C(OCC(=O)N(/N=C/c1ccccc1)c1cccc(C(F)(F)F)c1)c1cc(Cl)ccc1[N+](=O)[O-] | inconclusive: 31.6 µM [inhibitor, full curve, poor fit] |
| CNc1nc(-c2sc3ccccc3c2C)cs1 | inconclusive: 39.8 µM [inhibitor, partial curve, poor fit] |
| COCCNc1nnnc2c1sc1nc(N3CCOCC3)c3c(c12)CC(C)(C)OC3 | inactive |
| CC(=O)NC(C)(c1ccccc1)c1nc(-c2ccc(N(C)C)cc2)cs1 (stereo not given) | inconclusive: 17.8 µM [inhibitor, full curve] |
| Cc1ccc(C2(C)NC(=O)N(CC(=O)N3CCN(S(=O)(=O)c4cccc([N+](=O)[O-])c4)CC3)C2=O)cc1 (stereo not given) | inconclusive: 10 µM [inhibitor, full curve] |
| CC(NC(=O)CCc1ncc(-c2ccc(Cl)cc2)o1)c1ccc(S(C)(=O)=O)cc1 (stereo not given) | inconclusive: 56.2 µM [inhibitor, partial curve, poor fit] |
| FC(F)Oc1ccccc1C=C(c1nc2ccccc2s1)c1nc2ccccc2s1 | inconclusive: 28.2 µM [inhibitor, partial curve] |
| Cc1cccc2sc(N(CCN(C)C)C(=O)c3ccc4c(c3)OCCO4)nc12 | inconclusive: 50.1 µM [inhibitor, partial curve, poor fit] |
| O=C(CSC1=NC2(CCCCC2)N=C1c1cccs1)NCc1ccccc1 | inconclusive: 89.1 µM [inhibitor, partial curve, poor fit] |
| Cc1cc(C)c(C#N)c(SCS(=O)Cc2ccccc2)n1 (stereo not given) | inactive |
| CCOc1ccccc1NC(=O)C1CCN(c2nc3ccccc3o2)CC1 | inconclusive: 50.1 µM [inhibitor, partial curve, poor fit] |
| COc1ccc(/C=N/NC(=O)c2nnn(-c3nonc3N)c2-c2cccs2)cc1OC | inactive |
| CCN(CC)C(=O)CC(c1ccc2c(c1)OCO2)c1c(OC)cc(OC)c2c(-c3ccccc3)cc(=O)oc12 (stereo not given) | inconclusive: 12.6 µM [inhibitor, partial curve, poor fit] |
| CC(C)c1nnc(NC(=O)NCC(O)c2ccc(F)cc2)s1 (stereo not given) | inactive |
| CC(=O)N1CCc2cc(S(=O)(=O)CCC(=O)Nc3ccc(C)cc3Br)ccc21 | inconclusive: 44.7 µM [inhibitor, partial curve, poor fit] |
| O=C(O)COc1ccccc1/C=N/Nc1ccc(S(=O)(=O)Nc2ccc(Cl)cc2)cc1[N+](=O)[O-] | active: 31.6 µM |
| COc1ccc(-c2cn[nH]c2-c2ccc(O)cc2O)cc1 | inconclusive: 50.1 µM [inhibitor, partial curve, poor fit] |

— PubChem BioAssay AID1671190 (National Center for Advancing Translational Sciences (NCATS), 2021)
